Results on 16 molecules are retold here after PubChem BioAssay AID1487 (National Center for Advancing Translational Sciences (NCATS), 2009).

Some of the results follow. The main result of the screen is listed elsewhere. These columns were measured beside it and carry no call. Compounds called inactive in the main read-out are mostly missing here. The note in brackets gives the kind of curve behind each potency; many fits are weak.

The nature of the assay: qHTS Assay for Modulators of Lamin A Splicing. Particulars: HeLa LMNA splicing GFP/RFP minigene ratio, 48 h. Summed up:
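S3 HeLa stable clones carrying a lamin A-EGFP splicing minigene plus DsRed2 were seeded at 600 cells/well in Opti-MEM with 2% FBS, pin-dosed and incubated 48 h at 37°C. Acumen cytometry (488 nm) gave the GFP/RFP total-intensity ratio.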

The mark [1] stands for this setting: measured here: RFP viability control channel.
Setting [2] is: measured here: GFP splicing reporter channel.

What is called AC50 is the concentration giving half of the maximal activity seen. For the molecule `CCN(c1cccc(C(F)(F)F)c1)S(=O)(=O)c1ccc2c(c1)CCN2C(=O)C1CC1`, the AC50 under setting [1] is 11.2 µM [rising, partial curve, poor fit].

On to `O=C(CC1CC2CCC1C2)OCC(=O)c1c[nH]c2ccccc12` (stereo not given), for which the AC50 runs as follows: under setting [2], 17.8 µM [falling, single point]; under setting [1], 25.1 µM [falling, single point].

For the molecule `CC(=O)Nc1cc(-c2nc3cc(Cl)ccc3o2)ccc1C`, the AC50 under setting [1] is 0.02 µM [falling, full curve, poor fit].

`CCSc1nnc(NC(=O)CSc2nnc(C)c(=O)n2N)s1`: under setting [1], the concentration at half-maximal activity (AC50) was 0.0141 µM [falling, full curve].

As to `CC/C(=N\Nc1ccc([N+](=O)[O-])cc1)c1ccccc1`, the AC50 under setting [2] is 28.2 µM [falling, single point].

As to `Cc1nc2sc3c(c2c(=N)n1N)CCCC3`, under setting [1], the AC50 was 0.794 µM [falling, single point].

Take `O=C(O)CCc1ccc(S(=O)(=O)N2CCOCC2)cc1`: the AC50 reads like this: under setting [2], 5.62 µM [falling, single point]; under setting [1], 5.62 µM [falling, single point].

As to `Cc1ccc2nc(NC(=O)C3CCN(S(=O)(=O)c4cccc5nsnc45)CC3)sc2c1`, the AC50 under setting [1] is 12.6 µM [rising, partial curve].

For `O=c1cc2c(nn1Cc1ccc(Cl)cc1Cl)-c1ccccc1CC2`, under setting [1], the AC50 is 28.2 µM [rising, single point].

`O=C(O)c1ccccc1C(=O)c1ccc2c(c1)N(Cc1ccc(Cl)c(Cl)c1)C(=O)CO2`: the AC50 was 35.5 µM [rising, single point] under setting [2] and 35.5 µM [rising, partial curve] under setting [1].

Regarding `Cc1ccc(-c2cc(C(=O)N3CCCc4ccccc43)c3ccccc3n2)cc1`, the AC50 under setting [1] is 20 µM [rising, single point].

Turning to `CS(=O)(=O)c1ccc([C@H](O)[C@H](CO)NC(=O)C(Cl)Cl)cc1`, the AC50 reads like this: under setting [2], 0.282 µM [falling, partial curve, poor fit]; under setting [1], 0.251 µM [falling, full curve].

Turning to `CC1(C)CC(=O)c2c(O)cc(OCc3ccc(Br)cc3)cc2O1`, the AC50 under setting [1] is 14.1 µM [rising, single point].

For `CN(CC(=O)NCc1ccc(Cl)cc1)S(=O)(=O)c1ccc2[nH]c3c(c2c1)CCCC3`, the AC50 under setting [1] was 35.5 µM [rising, partial curve].

In the case of `O=c1[nH]cnc2c1ncn2C1OC(CO)C(O)C1O` (stereo not given), the AC50 under setting [2] is 31.6 µM [rising, single point].

As for `COc1ccccc1CNC(=O)CCC1N=C2c3ccccc3N=C(SCC(=O)Nc3ccc(F)cc3)N2C1=O` (stereo not given), the AC50 under setting [1] is 0.0398 µM [falling, full curve, poor fit].
